Data taken from PubChem BioAssay AID1745848, deposited by NCATS (2022).

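HEK-293 cells carrying an ATXN2-luciferase reporter; luminescence signal loss after 24 h of compound exposure, with a parallel cell viability readout.
Compounds were tested as a dilution series from about 0.0037 to 57 µM.
The number is the fitted half-maximal inhibitory concentration (AC50); a lower value means a more potent inhibitor.
Calls come from curve class and activity score: actives score 40–100, while inconclusive compounds (weak, partial, poorly fitted or single-point curves) score 1–39.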

Values are in µM.
Every entry below has the call inconclusive.
Only part of the assay is shown, chiefly results filed as inconclusive.
Potencies fitted to partial, single-point or poorly fitting curves are rough.
Activity scores are not listed here.

Compound,fitted potency (µM),curve as filed
Cc1ccc2ccc(C(Nc3ccccn3)c3ccccc3)c(O)c2n1 (stereo unspecified),28.18,"inhibitor, partial curve, poor fit"
CCOC(=O)N1CCN(c2ccnc3cc(Cl)ccc23)CC1,1.259,"inhibitor, partial curve"
CCc1nc2c(OCCC3CCCCC3)cccn2c1N(C=O)Cc1ccc(OC)cc1,28.18,"inhibitor, single point"
Cc1cc(Cl)ccc1OCCCC(=O)NNC(=O)c1ccccc1O,1.413,"inhibitor, partial curve"
CCOP(=O)(OCC)C(Cc1ccccc1)N=C(c1ccccc1)c1ccccc1 (stereo unspecified),28.18,"inhibitor, single point"
Cc1cccc(NC(c2ccc(C)s2)c2ccc3ccc(C)nc3c2O)n1 (stereo unspecified),31.62,"inhibitor, single point"
CC(C)N(C(=O)COC(=O)c1ccccc1C(=O)c1ccc(Cl)c([N+](=O)[O-])c1)C(C)C,3.548,"inhibitor, single point"
CCC(C)(C)c1ccc(Oc2ccc(N)cc2)cc1,1.995,"inhibitor, full curve, poor fit"
CCN(CC)c1ccc(/C=N/NC(=O)CCC(=O)NCc2ccccc2)c(O)c1,2.512,"inhibitor, full curve, poor fit"
O=c1ccc2ccccc2c2ccccc12,17.78,"inhibitor, partial curve, poor fit"
CCCCN1C(=O)/C(=C2/Sc3ccccc3N2C)S/C1=N\c1ncn[nH]1,15.85,"inhibitor, partial curve"
N#Cc1c(Br)n(C2OC(CO)C(O)C2O)c2ncnc(N)c12 (stereo unspecified),0.2512,"inhibitor, full curve, poor fit"
COc1ccc(C(CCNC(C)c2ccccc2)c2ccc(F)cc2)cc1 (stereo unspecified),31.62,"inhibitor, single point"
CC(C)(C)N(Cc1ccc2c(c1)OCO2)C(=O)/C=C\S(=O)c1ccccc1 (stereo unspecified),14.13,"inhibitor, partial curve, poor fit"
O=C(C1CCC(CNS(=O)(=O)c2cccc3nsnc23)CC1)N1CC=C(c2ccccc2)CC1 (stereo unspecified),2.818,"inhibitor, partial curve"
COc1ccccc1Cc1c(-c2ccco2)nc2c(C)cc(Br)cn12,7.08,"inhibitor, full curve, poor fit"
Oc1c(Cl)cc(Cl)cc1/C=C/c1ccc2cccc(O)c2n1,8.912,"inhibitor, single point"
Cc1ccc(C)c(NC(=O)CCC(=O)N/N=C/c2cc([N+](=O)[O-])ccc2O)c1,3.548,"inhibitor, single point"
O=C(c1ccoc1)N1CCN(c2cc(-c3cccnc3)nc3cc(-c4cccc(Cl)c4)nn23)CC1,28.18,"inhibitor, single point"
O=C(c1ccc(CS(=O)Cc2ccccc2Cl)o1)N1CCN(c2cccc(Cl)c2)CC1 (stereo unspecified),31.62,"inhibitor, single point"
CN1CCN(c2nc(Nc3ccc(F)cc3)nc(Nc3ccc(F)cc3)n2)CC1,14.13,"inhibitor, partial curve, poor fit"
O=C(NNCc1ccccc1)c1ccccc1,19.95,"inhibitor, single point"
COc1ccccc1CNc1nc(NC(C)C)nc2cc(-c3ccccc3)sc12,28.18,"inhibitor, single point"
Cc1cc(OCCCCCn2ccnc2)cc(C)c1Cl,31.62,"inhibitor, single point"

For reference, 3 entries once more:

* COc1ccc(C(CCNC(C)c2ccccc2)c2ccc(F)cc2)cc1 (stereo unspecified) : fitted potency 31.62 µM (inhibitor, single point)
* CC(C)(C)N(Cc1ccc2c(c1)OCO2)C(=O)/C=C\S(=O)c1ccccc1 (stereo unspecified) : fitted potency 14.13 µM (inhibitor, partial curve, poor fit)
* Oc1c(Cl)cc(Cl)cc1/C=C/c1ccc2cccc(O)c2n1 : fitted potency 8.912 µM (inhibitor, single point)